Laboratory results taken from patent US20220332795A1.
Residue numbers refer to the chain shown, from its start. Results are given in words; binding and its absence hold for the method and conditions named. Some results given as binding are weak or reduced against the parent protein; the word gives no strength. One block for each binder: values may come before it.

Chains of the proteins cited; added tags and fusions are not shown. Lines headed by an entry give the natural chain unless they say otherwise; changes in a name come on top. A line that says so, or that is headed by a name, gives the form on record, which may keep a tag or linker.
human CD71 (transferrin receptor 1) extracellular domain, recombinant, biotinylated (P02786, form named): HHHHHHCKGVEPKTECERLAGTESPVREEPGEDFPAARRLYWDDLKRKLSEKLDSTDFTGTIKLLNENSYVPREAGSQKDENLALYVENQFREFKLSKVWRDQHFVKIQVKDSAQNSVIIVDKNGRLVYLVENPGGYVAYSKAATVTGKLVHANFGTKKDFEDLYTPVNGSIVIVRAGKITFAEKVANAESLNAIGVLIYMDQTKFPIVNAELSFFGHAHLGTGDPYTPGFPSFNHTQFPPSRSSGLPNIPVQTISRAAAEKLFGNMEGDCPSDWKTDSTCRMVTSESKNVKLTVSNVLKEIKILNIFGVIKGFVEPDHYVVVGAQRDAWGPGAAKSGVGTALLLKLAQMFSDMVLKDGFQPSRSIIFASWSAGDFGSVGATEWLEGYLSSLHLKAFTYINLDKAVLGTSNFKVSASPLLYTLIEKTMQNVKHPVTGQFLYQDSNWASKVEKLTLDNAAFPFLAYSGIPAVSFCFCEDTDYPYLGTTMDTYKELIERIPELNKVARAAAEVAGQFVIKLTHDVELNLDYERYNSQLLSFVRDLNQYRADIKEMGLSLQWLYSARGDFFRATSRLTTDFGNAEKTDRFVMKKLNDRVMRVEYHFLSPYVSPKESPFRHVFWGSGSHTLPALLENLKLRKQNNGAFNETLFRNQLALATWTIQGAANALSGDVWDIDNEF

Molecular target: human CD71 (transferrin receptor 1) extracellular domain, recombinant, biotinylated (human) (UniProt P02786)
Test: hit of apical domain panning; heading of the sequence table

B1: FN3 domain of SEQ ID NO: 72 (designed binder)
chain: MLPAPKNLVVSRVTEDSARLSWTAPDAAFDSFTIGYREWYWYGEAIVLTVPGSERSYDLTGLKPGTEYNVPISGVKGGLDSFPLSAIFTT
binding: binds

B4: FN3 domain of SEQ ID NO: 66 (designed binder)
chain: MLPAPKNLVVSRVTEDSARLSWTAPDAAFDSFTIDYDEPRSPGEAIVLTVPGSERSYDLTGLKPGTEYRVFIWGIKGGDTSFPLSAIFTT
binding: binds

B5: FN3 domain of SEQ ID NO: 67 (designed binder)
chain: MLPAPKNLVVSRVTEDSARLSWTAPDAAFDSFTILYAEQAQFGEAIVLTVPGSERSYDLTGLKPGTEYPITGVKGGTRSGPLSAISTT
binding: binds

B6: FN3 domain of SEQ ID NO: 52 (designed binder)
chain: MLPAPKNLVVSRVTEDSARLSWTAPDAAFDSFEIDYDELAIYGEAIVLTVPGSERSYDLTGLKPGTEYGVRIPGVKGGMPSLPLSAIVTT
binding: binds

B7: FN3 domain of SEQ ID NO: 60 (designed binder)
chain: B6 chain
binding: binds

B8: FN3 domain of SEQ ID NO: 54 (designed binder)
chain: MLPAPKNLVVSRVTEDSARLSWTAPDAAFDSFAIAYGEHIVIGEAIVLTVPGSERSYDLTGLKPGTEYMVPIAGVKGGPISLPLSAIFTT
binding: binds

B10: FN3 domain of SEQ ID NO: 75 (designed binder)
chain: MLPAPKNLVVSRVTEDSARLSWTAPDAAFDSFTISYGEEALIGEAIYLRVPGSERSYDLTGLKPGTEYYVHIEGVKGGSWSQPLAAAFTT
binding: binds

B11: FN3 domain of SEQ ID NO: 55 (designed binder)
chain: MLPAPKNLVVSRVTEDSARLSWTAPDAAFDSFFIPYAEPSPTGEAIVLTVPGSERSYDLTGLKPGTEYSVLIHGVKGGHLSDPLSAIFTT
binding: binds

B13: FN3 domain of SEQ ID NO: 68 (designed binder)
chain: B11 chain with F33I, P39V, S40R, T42D, F88S
binding: binds

B14: FN3 domain of SEQ ID NO: 85 (designed binder)
chain: B11 chain with F33I, P35E, A37F, S40I, T42I, S69A, L71N, H73Y, H79Y, D82H
binding: binds

B16: FN3 domain of SEQ ID NO: 65 (designed binder)
chain: B11 chain with E15K, F33P, P35A, S40R, T42D, H79L, D82S
binding: binds

B17: FN3 domain of SEQ ID NO: 83 (designed binder)
chain: B11 chain with F33P, P35A, S40R, T42D, H79L, D82S, F88S
binding: binds

B18: FN3 domain of SEQ ID NO: 57 (designed binder)
chain: B11 chain with F33A, P39L, P41R, T42N, S69T, H79C
binding: binds

B19: FN3 domain of SEQ ID NO: 82 (designed binder)
chain: B11 chain with F33L, P39T, T42S, H79D, L80Y, D82S
binding: binds

B21: FN3 domain of SEQ ID NO: 78 (designed binder)
chain: MLPAPKNLVVSRVTEDSARLSWTAPDAAFDSFGIGYYEHKRFGEAIQLSVPGSERSYDLTGLKPGTEYEVDIEGVKGGVLSWPLFAEFTT
binding: binds

B22: FN3 domain of SEQ ID NO: 89 (designed binder)
chain: MLPAPENLVVSRVTEDSARLSWTAPDAAFDSFWIEYYEGVIQGEAIVLTVPGSERSYDLTGLKPGTEYFVAIWGVKGGKWSVPLSAIFTT
binding: binds

B23: FN3 domain of SEQ ID NO: 59 (designed binder)
chain: MLPAPKNLVVSRVTEDSARLSWTAPDAAFDSFVYNEVHWIGEAIVLTVPGSERSYDLTGLKPGTEYFVGIYGVKGGHWSKPLSAIFTT
binding: binds

B24: FN3 domain of SEQ ID NO: 63 (designed binder)
chain: MLPAPKNLVVSRVTEDSARLSWTAPDAAFDSFCISYYERMGRGEAIVLTVPGSERSYDLTGLKPGTEYMVYIFGVKGGLNSLPLSAIFTT
binding: binds

B25: FN3 domain of SEQ ID NO: 90 (designed binder)
chain: MLPAPKNLVVSRVTEDSARLSWQGVARAFDSFLITYREQIFAGEVIVLTVPGSERSYDLTGLKPGTEYPVWIQGVKGGSPSAEFTT
binding: binds

B26: FN3 domain of SEQ ID NO: 88 (designed binder)
chain: MLPAPKNLVVSRVTEDSARLSWTAPDAAFDSFPIKYREVLRCGEAIVLTVPGSERSYDLTGLKPGTEYTVPITGVKGGFGSSPLSAIFTT
binding: binds

B27: FN3 domain of SEQ ID NO: 61 (designed binder)
chain: MLPAPKNLVVSRVTEDSARLSWTAPDAAFDSFQIVYSELWIKGEAIVLTVPGSERSYDLTGLKPGTEYQVPIPGVKGGRNSFPLSAIFTT
binding: binds

B32: FN3 domain of SEQ ID NO: 74 (designed binder)
chain: MLPAPKNLVVSRVTEDSARLSWTAPDAAFDSFSITYLEWWNLGEAIVLTVPGSERSYDLTGLKPGTEYMVTIPGVKGGMSSYPLSAIFTT
binding: binds

B34: FN3 domain of SEQ ID NO: 80 (designed binder)
chain: MLPAPKNLVVSRVTEDSARLSWTAPDAAFDSFWIDYEEEGVIGEAIYLHVPGSERSYDLTGLKPGTEYVVKIHGVKGGHPSHPLVAVFTT
binding: binds

B35: FN3 domain of SEQ ID NO: 51 (designed binder)
chain: MLPAPKNLVVSEVTEDSARLSWQGVARAFDSFLITYREQIFAGEVIVLTVPGSECSYDLTGLKPGTEYPVWIQGVKGGSPSAPLSAEFTT
binding: binds

B37: FN3 domain of SEQ ID NO: 53 (designed binder)
chain: B35 chain with K6E, C55R, F88S
binding: binds

B41: FN3 domain of SEQ ID NO: 73 (designed binder)
chain: B35 chain with C55R, F88S
binding: binds

More lines, now with the values ahead:

binding: binds
B2: FN3 domain of SEQ ID NO: 79 (designed binder)
chain: MLPAPKNLVVSRVTEDSARLSWTAPDAAFDSFVIEYTERFWSGEAIVLTVPGSERSYDLTGLKPGTEYSVPIDGVKGGQCSTPLSAIFTT

binding: binds
B3: FN3 domain of SEQ ID NO: 87 (designed binder)
chain: B2 chain with V33A, R39F, F40L, W41Y, S69G, D73N, Q79F, C80V, T82P, F88V

binding: binds
B9: FN3 domain of SEQ ID NO: 76 (designed binder)
chain: B8 chain with A33T, A35E, G37Y, H39N, V41G, M69S, A73V, I80Y, L82H

binding: binds
B12: FN3 domain of SEQ ID NO: 92 (designed binder)
chain: B11 chain

binding: binds
B15: FN3 domain of SEQ ID NO: 77 (designed binder)
chain: B11 chain with F33P, P35A, S40R, T42D, H79L, D82S

binding: binds
B20: FN3 domain of SEQ ID NO: 64 (designed binder)
chain: B11 chain with F33Y, P35V, S40I, T42N, H79R, L80N

binding: binds
B28: FN3 domain of SEQ ID NO: 62 (designed binder)
chain: MLPAPKNLVVSRVTEDSARLSWTAPDAAFDSFKIRYTETRSIGEAIVLTVPGSERSYDLTGLKPGTEYCVPIGGVKGGDSSWPLSAISTT

binding: binds
B29: FN3 domain of SEQ ID NO: 93 (designed binder)
chain: MLPAPKNLVVSRVTEDSARLSWTAPDAAFDSFAIEYYEPVPAGEAIYLDVPGSERSYDLTGLKPGTEYDVTIYGVKGGYYSHPLFASFTT

binding: binds
B30: FN3 domain of SEQ ID NO: 56 (designed binder)
chain: B32 chain with T35G, L37V, W39L, W40V, N41L, M69D, T71L, M79S, S80L, Y82R

binding: binds
B31: FN3 domain of SEQ ID NO: 71 (designed binder)
chain: MLPAPKNLVVSRVTEDSARLSWTAPDAAFDSFPISYLELSLYGEAIVLTVPGSERSYDLTGLKPGTEYPVGIAGVKGGVVSRPLSAIFTT

binding: binds
B33: FN3 domain of SEQ ID NO: 50 (designed binder)
chain: MSLPAPKNLVVSRVTEDSARLSWTAPDAAFDSFTIHYREFQLSGEAIVLTVPGSERSYDLTGLKPGTEYDVPIEGVKGGPGSRPLSAIFTT

binding: binds
B36: FN3 domain of SEQ ID NO: 84 (designed binder)
chain: B35 chain with E12R, L33S, T35L, R37L, Q39L, I40T, F41P, A42K, V45A, C55R

binding: binds
B38: FN3 domain of SEQ ID NO: 86 (designed binder)
chain: B35 chain

binding: binds
B39: FN3 domain of SEQ ID NO: 81 (designed binder)
chain: B35 chain with E12R, R37V, Q39L, I40R, F41H, A42L, V45A, C55R

binding: binds
B40: FN3 domain of SEQ ID NO: 70 (designed binder)
chain: B35 chain with E12R, C55R, S79D, P80L, A82N, E87I
